PubChem BioAssay AID1159578 | Peter MacCallum Cancer Centre, 2015
Screen: 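Knock-downs that alter how fast lymphatic endothelial cells migrate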 (primary screen). System: human lymphatic endothelial cells. Reagents: siRNA pool against human genes, 40 nM. Time to read-out: 48 h after transfection. Detection: 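High-content imaging of dye-stained cells in a scratch assay measures filled wound area and nuclei per well; duplicate means given as ratio to mock and robust z-score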. Direction: migration robust z-score: higher = faster migration into the scratch; migration relative to mock: higher = more scratch area covered than mock; nuclei per well: higher = more cells in the well. Hit rule: 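Migration changed when robust z exceeds 2 or falls below -2 and mean nuclei number is at least 3300; otherwise not called changed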. Meaning of the calls: active = migration changed; inactive = no migration change, or too few cells.
Here is one part, drawn at random, of about 18,000 deposited reagents. Of all reagents, about 1,030 (5.7%) were called active. 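Inactive calls also include pools with fewer than 3300 nuclei, whose migration was not assessed.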 The raw values are shown without normalisation.

no.	gene	migration robust z-score	migration class with cell-count check	migration relative to mock	nuclei per well, duplicate mean	activity call
1	KIAA1143	-0.18	migration z between -2 and 2; enough cells	0.84	5746	inactive
2	LCE3B	0.75	migration z between -2 and 2; enough cells	1.08	5329	inactive
3	MYLK2	0.26	migration z between -2 and 2; enough cells	0.86	4800	inactive
4	RNFT2	0.94	migration z between -2 and 2; enough cells	0.98	6690	inactive
5	NGF	0.88	migration z between -2 and 2; enough cells	0.98	7035	inactive
6	RPIA	-0.97	migration z between -2 and 2; enough cells	0.64	7312	inactive
7	ANLN	0.46	migration z between -2 and 2; enough cells	1	4292	inactive
8	METTL3	0.39	migration z between -2 and 2; enough cells	0.88	4784	inactive
9	KDM2B	-1.32	migration z between -2 and 2; enough cells	0.55	5198	inactive
10	ZNF197	-1.22	migration z between -2 and 2; enough cells	0.57	5673	inactive
11	PGA4	0.62	migration z between -2 and 2; enough cells	0.92	4876	inactive
12	SRGAP1	1.46	migration z between -2 and 2; enough cells	1.27	6666	inactive
13	TGM7	-3.07	under 3300 nuclei; migration not judged	0.22	3023	inactive
14	EIF5B	-0.68	migration z between -2 and 2; enough cells	0.68	5492	inactive
15	MYOZ1	-0.09	migration z between -2 and 2; enough cells	0.86	5308	inactive
16	TMBIM1	0.94	migration z between -2 and 2; enough cells	1.13	6141	inactive
17	LGALS9B	1.25	migration z between -2 and 2; enough cells	1.21	5928	inactive
18	CCDC33	-0.12	migration z between -2 and 2; enough cells	0.86	6224	inactive
19	RNF208	1.22	migration z between -2 and 2; enough cells	1.04	6642	inactive
20	CT47A3	-1.66	migration z between -2 and 2; enough cells	0.46	5304	inactive
21	HPS1	1.5	migration z between -2 and 2; enough cells	1.27	5494	inactive
22	RPL26L1	-1.27	migration z between -2 and 2; enough cells	0.55	3672	inactive
23	ZBTB11	-1.42	migration z between -2 and 2; enough cells	0.52	4952	inactive

Next part (8 carried over from the part before).
no.	gene	migration robust z-score	migration class with cell-count check	migration relative to mock	nuclei per well, duplicate mean	activity call
16	TMBIM1	0.94	migration z between -2 and 2; enough cells	1.13	6141	inactive
17	LGALS9B	1.25	migration z between -2 and 2; enough cells	1.21	5928	inactive
18	CCDC33	-0.12	migration z between -2 and 2; enough cells	0.86	6224	inactive
19	RNF208	1.22	migration z between -2 and 2; enough cells	1.04	6642	inactive
20	CT47A3	-1.66	migration z between -2 and 2; enough cells	0.46	5304	inactive
21	HPS1	1.5	migration z between -2 and 2; enough cells	1.27	5494	inactive
22	RPL26L1	-1.27	migration z between -2 and 2; enough cells	0.55	3672	inactive
23	ZBTB11	-1.42	migration z between -2 and 2; enough cells	0.52	4952	inactive
24	MLPH	1.11	migration z between -2 and 2; enough cells	1.17	6842	inactive
25	OPRM1	-0.6	migration z between -2 and 2; enough cells	0.69	7906	inactive
26	FGD5	0.36	migration z between -2 and 2; enough cells	0.98	4842	inactive
27	WNT9A	-0.8	migration z between -2 and 2; enough cells	0.68	5783	inactive
28	KLHL14	0.68	migration z between -2 and 2; enough cells	1.06	5338	inactive
29	TPT1P8	1.96	migration z between -2 and 2; enough cells	1.39	6740	inactive
30	TACO1	-0.64	migration z between -2 and 2; enough cells	0.72	5890	inactive
31	CFAP69	0.7	migration z between -2 and 2; enough cells	1.07	5649	inactive
32	MTA3	-0.64	migration z between -2 and 2; enough cells	0.72	5956	inactive
33	ZNF826P	1.92	migration z between -2 and 2; enough cells	1.38	6550	inactive
34	VPS51	-0.66	migration z between -2 and 2; enough cells	0.72	5552	inactive
35	POMT1	0.8	migration z between -2 and 2; enough cells	0.96	6209	inactive
36	TUBB2A	-2.64	migration z below -2; enough cells	0.3	6326	active
37	CD48	1.85	migration z between -2 and 2; enough cells	1.36	6608	inactive
38	C1QL3	1.05	migration z between -2 and 2; enough cells	1.16	6214	inactive
39	B3GALNT1	1.35	migration z between -2 and 2; enough cells	1.06	4164	inactive
40	BLMH	-0.08	migration z between -2 and 2; enough cells	0.79	5360	inactive
41	ZNF410	-0.82	migration z between -2 and 2; enough cells	0.68	5245	inactive
42	NOP53	-1	migration z between -2 and 2; enough cells	0.62	5217	inactive
43	CCNE1	-1.38	migration z between -2 and 2; enough cells	0.54	5236	inactive
44	OR4K17	-0.03	migration z between -2 and 2; enough cells	0.88	6564	inactive
45	ANKRD20A5P	0.36	migration z between -2 and 2; enough cells	0.98	5718	inactive
46	MAP1A	-0.66	migration z between -2 and 2; enough cells	0.72	5424	inactive
47	ZNF488	-0.02	migration z between -2 and 2; enough cells	0.88	5088	inactive
48	CLK1	1.97	migration z between -2 and 2; enough cells	1.19	5118	inactive
49	LDB1	0.08	migration z between -2 and 2; enough cells	0.82	6748	inactive
50	GALM	0.36	migration z between -2 and 2; enough cells	0.88	7214	inactive
51	MBTPS2	-0.34	migration z between -2 and 2; enough cells	0.74	5217	inactive
52	ADGRF2P	-1.48	migration z between -2 and 2; enough cells	0.52	5400	inactive
53	LAMC2	-2.59	under 3300 nuclei; migration not judged	0.22	2902	inactive
54	OR5AK2	-0.3	migration z between -2 and 2; enough cells	0.81	5772	inactive
55	LRRC4C	-1.58	migration z between -2 and 2; enough cells	0.48	6683	inactive
56	R3HDML	-0.51	migration z between -2 and 2; enough cells	0.76	4528	inactive
57	RPS6KA4	0.11	migration z between -2 and 2; enough cells	0.82	5154	inactive
